Results are given in words; binding and its absence hold for the method and conditions named. In cells and extracts the contact can be indirect. Binding calls can cover weak binding; strength is not graded here. Tags and fused reporters may be left off the sequences shown.
What was measured:
[1] = molecular target: T1, GST-TAK1 (full length 1-606 aa) (UniProt O43318); assay: pull-down; GST-TAK1 or GST-vector and GPX4 incubated in lysis buffer overnight at 4 °C; GST-agarose added for 4 h at 4 °C, washed four times; blot with anti-GPX4; GPX4 bought as purified protein, whether the GST proteins were purified beforehand is not told
T1 sequence: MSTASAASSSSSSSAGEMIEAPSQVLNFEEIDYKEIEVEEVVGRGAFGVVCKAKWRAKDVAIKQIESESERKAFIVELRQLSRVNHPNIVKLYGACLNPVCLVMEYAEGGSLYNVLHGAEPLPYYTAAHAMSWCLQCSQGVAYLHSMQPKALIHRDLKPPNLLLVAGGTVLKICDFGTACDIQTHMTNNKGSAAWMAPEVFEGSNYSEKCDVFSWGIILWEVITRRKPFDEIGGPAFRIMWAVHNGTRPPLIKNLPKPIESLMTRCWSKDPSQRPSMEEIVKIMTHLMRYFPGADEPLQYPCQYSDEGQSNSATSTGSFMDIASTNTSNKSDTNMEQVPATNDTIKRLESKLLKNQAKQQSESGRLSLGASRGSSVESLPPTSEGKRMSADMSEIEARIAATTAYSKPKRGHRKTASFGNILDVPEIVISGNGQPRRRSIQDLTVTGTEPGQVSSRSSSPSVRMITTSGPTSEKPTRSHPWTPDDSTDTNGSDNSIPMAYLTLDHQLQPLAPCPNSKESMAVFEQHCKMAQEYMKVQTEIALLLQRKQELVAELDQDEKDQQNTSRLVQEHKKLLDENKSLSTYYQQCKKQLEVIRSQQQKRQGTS

[2] = molecular target: T2, GST-TAK1 (N-terminal 1-305 aa) (UniProt O43318); assay: as above
T2 sequence: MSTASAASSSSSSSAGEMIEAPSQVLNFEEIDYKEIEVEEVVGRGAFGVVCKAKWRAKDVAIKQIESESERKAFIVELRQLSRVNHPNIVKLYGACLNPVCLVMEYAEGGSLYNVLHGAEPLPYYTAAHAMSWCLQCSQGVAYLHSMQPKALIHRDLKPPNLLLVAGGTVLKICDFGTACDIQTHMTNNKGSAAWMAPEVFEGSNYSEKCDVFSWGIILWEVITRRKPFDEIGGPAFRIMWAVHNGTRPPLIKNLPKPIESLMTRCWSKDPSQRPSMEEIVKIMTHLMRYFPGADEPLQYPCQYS

binding [1]: binds | binding [2]: binds
Substance: recombinant human GPX4 protein (Abcam ab82660)
